The list shows a part of the results.
How the values were obtained:
Experiment in all cases: log2 fold change, soluble protein after heating vs DMSO (PISA); higher = thermal stabilisation; K562 lysate, 10 uM; active = over 0.2 and 3.5 SD of the protein, either way, in both replicates (recomputed)
[1] = compound: NCC(=O)Nc1ccc(-n2nc(C(F)(F)F)cc2-c2ccc3c(ccc4ccccc43)c2)cc1
How it was run: (§1)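 Pellets of K562 cells were dounce-homogenised in PBS pH 7.4 with 1 mM MgCl2, and the crude extract was held at 1 mg/mL protein for a 30 min treatment with 10 μM compound. Aliquots were heated for 3 min over 48°C-58°C and pooled before NP-40 was added to 0.5% at 4°C. The supernatant from 21,000xg for 90 min was quantified by TMTpro 16plex LC-MS/MS with channel sums equalised. Values are reported from duplicates as log-two fold change in thermal stability relative to solvent controls.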

The chains behind the UniProt entries cited, without tags or fusion partners. Where a name states a change or a piece, a line headed by the entry shows the natural chain unless it says otherwise.
UniProt Q92622: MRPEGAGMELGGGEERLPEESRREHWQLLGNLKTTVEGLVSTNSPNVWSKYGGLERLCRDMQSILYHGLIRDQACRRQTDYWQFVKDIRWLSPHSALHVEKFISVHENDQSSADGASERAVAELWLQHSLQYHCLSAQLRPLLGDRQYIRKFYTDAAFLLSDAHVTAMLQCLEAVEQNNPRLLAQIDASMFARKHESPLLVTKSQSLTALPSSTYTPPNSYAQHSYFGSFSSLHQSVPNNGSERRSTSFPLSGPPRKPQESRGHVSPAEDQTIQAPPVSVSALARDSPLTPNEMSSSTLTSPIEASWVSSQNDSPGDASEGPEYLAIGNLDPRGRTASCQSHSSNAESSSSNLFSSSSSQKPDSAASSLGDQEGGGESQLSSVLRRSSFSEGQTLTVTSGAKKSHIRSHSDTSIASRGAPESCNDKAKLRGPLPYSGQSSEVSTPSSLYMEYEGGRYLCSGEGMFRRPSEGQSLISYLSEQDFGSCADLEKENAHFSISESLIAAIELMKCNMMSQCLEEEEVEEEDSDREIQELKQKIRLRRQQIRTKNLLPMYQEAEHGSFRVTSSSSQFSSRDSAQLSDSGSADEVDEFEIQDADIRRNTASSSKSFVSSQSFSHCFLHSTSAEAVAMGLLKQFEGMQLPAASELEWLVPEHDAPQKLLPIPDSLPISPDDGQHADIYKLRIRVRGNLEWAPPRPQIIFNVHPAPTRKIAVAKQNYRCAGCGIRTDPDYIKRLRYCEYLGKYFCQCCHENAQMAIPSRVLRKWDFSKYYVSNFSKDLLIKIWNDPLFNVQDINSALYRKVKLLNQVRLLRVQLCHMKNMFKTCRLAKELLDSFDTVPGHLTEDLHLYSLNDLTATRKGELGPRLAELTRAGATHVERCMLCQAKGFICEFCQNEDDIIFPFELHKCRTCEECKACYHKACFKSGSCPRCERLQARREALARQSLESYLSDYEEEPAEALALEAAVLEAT
UniProt Q96T51: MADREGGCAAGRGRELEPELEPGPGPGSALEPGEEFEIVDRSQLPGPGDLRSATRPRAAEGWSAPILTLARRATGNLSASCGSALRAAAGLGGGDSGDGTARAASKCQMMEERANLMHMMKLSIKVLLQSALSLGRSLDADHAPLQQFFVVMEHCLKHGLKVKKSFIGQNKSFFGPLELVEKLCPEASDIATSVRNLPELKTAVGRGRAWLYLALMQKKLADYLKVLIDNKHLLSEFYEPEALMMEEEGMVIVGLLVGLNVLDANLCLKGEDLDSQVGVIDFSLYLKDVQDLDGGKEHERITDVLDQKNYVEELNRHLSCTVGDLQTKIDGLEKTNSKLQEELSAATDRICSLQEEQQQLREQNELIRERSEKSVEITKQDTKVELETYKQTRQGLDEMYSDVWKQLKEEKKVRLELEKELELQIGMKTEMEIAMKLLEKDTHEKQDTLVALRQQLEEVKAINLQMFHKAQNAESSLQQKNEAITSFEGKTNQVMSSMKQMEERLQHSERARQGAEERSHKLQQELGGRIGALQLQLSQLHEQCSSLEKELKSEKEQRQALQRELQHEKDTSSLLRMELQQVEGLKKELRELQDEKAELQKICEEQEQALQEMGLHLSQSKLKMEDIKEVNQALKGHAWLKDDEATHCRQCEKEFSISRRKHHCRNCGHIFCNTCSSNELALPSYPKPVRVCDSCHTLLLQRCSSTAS
UniProt Q5VZM2, whole entry, looked up: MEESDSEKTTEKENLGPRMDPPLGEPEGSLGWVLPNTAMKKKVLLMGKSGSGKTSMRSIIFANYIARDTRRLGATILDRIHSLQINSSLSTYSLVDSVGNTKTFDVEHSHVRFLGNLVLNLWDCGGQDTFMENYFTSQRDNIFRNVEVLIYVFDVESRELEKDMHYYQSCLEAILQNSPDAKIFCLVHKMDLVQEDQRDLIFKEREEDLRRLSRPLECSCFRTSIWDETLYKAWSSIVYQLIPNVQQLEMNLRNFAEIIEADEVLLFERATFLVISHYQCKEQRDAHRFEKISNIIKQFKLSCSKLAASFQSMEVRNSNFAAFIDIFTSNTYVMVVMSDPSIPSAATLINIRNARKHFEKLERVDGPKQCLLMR
UniProt Q9Y230, whole entry, looked up: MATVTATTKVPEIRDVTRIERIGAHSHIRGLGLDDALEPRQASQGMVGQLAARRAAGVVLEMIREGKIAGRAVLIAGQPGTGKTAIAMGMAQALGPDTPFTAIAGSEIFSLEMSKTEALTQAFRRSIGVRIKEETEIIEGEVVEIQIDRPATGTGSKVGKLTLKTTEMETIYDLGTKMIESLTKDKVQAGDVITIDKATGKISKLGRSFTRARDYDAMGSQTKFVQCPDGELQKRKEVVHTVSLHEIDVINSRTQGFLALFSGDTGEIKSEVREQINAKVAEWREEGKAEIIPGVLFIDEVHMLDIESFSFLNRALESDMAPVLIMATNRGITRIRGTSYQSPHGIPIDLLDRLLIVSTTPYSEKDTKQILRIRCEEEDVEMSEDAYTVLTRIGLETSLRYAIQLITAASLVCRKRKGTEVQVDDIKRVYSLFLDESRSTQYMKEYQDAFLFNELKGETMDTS
UniProt Q9Y224: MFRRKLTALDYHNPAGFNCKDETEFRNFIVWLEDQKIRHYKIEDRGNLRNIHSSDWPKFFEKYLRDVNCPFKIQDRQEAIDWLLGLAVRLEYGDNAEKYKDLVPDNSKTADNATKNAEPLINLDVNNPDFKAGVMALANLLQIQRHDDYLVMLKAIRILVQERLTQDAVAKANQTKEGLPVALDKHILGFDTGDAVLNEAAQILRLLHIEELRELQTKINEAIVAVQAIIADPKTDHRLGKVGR
UniProt P57060: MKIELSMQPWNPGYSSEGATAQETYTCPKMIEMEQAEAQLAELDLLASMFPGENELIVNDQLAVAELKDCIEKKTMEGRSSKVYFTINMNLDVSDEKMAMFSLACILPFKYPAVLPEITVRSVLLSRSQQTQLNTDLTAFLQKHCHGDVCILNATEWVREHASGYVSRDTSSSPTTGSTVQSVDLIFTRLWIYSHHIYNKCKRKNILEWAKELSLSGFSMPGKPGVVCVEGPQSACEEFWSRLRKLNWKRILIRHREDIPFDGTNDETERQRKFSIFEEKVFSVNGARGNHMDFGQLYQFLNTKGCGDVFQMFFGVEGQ
UniProt P80511: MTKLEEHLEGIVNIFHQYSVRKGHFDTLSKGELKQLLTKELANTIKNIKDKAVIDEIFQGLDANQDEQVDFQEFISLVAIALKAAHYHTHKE
UniProt Q8IZ73: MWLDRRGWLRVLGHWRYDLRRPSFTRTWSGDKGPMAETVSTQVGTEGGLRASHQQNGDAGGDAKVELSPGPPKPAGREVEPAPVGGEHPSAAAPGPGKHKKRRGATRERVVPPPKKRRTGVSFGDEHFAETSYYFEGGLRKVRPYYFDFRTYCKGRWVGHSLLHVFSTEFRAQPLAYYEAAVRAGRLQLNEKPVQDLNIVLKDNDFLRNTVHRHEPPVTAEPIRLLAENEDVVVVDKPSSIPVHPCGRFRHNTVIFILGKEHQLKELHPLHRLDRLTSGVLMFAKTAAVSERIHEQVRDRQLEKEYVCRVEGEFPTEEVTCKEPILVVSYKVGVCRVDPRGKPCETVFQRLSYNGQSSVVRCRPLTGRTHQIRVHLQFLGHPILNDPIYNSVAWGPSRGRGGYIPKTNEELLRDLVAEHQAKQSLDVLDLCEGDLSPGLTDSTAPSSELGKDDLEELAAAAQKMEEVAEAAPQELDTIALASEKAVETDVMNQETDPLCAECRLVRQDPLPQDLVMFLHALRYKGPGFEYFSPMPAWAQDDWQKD
UniProt O75818: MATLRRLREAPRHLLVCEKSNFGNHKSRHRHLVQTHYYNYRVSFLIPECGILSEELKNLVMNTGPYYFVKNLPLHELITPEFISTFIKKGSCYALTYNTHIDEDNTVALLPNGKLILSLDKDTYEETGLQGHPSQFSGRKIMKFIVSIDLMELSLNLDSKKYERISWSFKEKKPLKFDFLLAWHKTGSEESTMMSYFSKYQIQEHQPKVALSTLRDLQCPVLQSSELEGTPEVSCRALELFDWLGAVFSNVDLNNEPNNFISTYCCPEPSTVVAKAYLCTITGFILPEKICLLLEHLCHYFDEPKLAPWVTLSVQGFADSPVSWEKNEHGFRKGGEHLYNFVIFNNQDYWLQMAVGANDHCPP
UniProt Q9HB90, whole entry, looked up: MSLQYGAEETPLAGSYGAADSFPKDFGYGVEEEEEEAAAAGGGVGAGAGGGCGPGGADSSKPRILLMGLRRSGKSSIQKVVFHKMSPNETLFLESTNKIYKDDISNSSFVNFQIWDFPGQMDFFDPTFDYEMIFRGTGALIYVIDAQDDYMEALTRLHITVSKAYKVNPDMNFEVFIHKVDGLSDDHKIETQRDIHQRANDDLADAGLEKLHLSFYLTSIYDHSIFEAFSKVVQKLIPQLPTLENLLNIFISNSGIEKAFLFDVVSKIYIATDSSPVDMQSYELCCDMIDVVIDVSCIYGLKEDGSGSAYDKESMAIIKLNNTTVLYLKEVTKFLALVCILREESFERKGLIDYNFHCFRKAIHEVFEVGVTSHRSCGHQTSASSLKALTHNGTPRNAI
UniProt Q96S38: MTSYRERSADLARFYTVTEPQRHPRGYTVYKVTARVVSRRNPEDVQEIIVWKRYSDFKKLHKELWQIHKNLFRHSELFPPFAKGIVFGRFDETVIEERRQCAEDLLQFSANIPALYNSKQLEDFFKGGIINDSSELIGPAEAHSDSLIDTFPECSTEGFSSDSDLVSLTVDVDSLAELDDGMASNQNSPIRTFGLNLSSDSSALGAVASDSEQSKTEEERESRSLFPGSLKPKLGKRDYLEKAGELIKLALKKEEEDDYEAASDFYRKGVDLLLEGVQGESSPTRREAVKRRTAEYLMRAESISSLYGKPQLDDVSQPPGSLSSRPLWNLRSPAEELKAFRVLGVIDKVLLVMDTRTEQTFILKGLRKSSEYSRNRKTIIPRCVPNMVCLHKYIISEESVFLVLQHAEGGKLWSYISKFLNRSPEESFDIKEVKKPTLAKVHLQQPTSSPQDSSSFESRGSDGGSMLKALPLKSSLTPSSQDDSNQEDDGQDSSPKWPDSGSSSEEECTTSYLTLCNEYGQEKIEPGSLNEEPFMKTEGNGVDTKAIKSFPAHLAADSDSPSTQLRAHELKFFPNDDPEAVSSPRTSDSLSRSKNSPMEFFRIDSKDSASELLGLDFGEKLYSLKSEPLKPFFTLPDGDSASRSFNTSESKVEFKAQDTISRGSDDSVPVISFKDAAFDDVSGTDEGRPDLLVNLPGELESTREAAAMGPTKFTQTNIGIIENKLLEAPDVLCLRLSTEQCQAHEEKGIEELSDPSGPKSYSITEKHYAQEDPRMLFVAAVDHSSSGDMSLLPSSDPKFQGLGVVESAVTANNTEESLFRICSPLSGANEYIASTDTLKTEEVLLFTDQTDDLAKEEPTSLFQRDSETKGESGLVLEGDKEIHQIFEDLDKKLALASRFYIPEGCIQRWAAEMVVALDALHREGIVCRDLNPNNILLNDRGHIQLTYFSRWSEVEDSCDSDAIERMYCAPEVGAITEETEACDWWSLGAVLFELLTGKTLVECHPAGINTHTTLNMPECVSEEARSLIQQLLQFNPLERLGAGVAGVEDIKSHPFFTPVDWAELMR
UniProt O95197: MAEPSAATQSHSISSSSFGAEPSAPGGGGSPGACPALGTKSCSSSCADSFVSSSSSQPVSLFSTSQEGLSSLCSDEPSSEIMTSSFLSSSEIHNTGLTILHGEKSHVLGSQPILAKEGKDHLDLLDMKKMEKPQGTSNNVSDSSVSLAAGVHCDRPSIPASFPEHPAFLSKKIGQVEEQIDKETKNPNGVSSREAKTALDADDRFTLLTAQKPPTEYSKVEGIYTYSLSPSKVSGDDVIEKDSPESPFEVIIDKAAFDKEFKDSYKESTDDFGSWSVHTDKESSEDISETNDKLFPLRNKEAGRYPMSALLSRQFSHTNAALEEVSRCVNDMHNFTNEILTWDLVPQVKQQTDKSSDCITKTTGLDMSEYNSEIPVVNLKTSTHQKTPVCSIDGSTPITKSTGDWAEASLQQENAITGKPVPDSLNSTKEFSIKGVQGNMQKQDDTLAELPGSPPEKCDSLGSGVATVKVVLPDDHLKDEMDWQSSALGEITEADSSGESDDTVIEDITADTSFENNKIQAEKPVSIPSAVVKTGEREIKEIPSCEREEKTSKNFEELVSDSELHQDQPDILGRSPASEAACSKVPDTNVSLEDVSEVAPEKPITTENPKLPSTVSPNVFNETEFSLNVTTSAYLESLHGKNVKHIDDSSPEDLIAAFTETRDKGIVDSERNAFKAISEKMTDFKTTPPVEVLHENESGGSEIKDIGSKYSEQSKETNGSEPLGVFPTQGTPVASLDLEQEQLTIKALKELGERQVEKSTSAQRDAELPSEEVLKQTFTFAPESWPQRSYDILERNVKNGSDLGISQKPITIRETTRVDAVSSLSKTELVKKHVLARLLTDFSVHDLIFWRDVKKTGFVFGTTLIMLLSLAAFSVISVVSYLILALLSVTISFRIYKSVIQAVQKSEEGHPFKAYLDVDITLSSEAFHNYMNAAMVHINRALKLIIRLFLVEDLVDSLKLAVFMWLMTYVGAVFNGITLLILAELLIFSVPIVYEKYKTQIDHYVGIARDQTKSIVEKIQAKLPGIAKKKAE

[2] = compound: O=C(CCCCCCC(=O)Nc1ccccc1)NO [vorinostat]
How it was run: as §1

[3] = compound: O=C(O)c1ccc2c(c1)nc(Nc1cccc(Cl)c1)c1ccncc12 [silmitasertib]
How it was run: as §1

[4] = compound: O=C1NC(=O)C(c2cnc3ccccn23)=C1c1cn2c3c(cc(F)cc13)CN(C(=O)N1CCCCC1)CC2
How it was run: as §1

[5] = compound: c1cn2cc(-c3ccc4cn[nH]c4c3)nc(Nc3ccc(N4CCOCC4)cc3)c2n1 [entospletinib]
How it was run: as §1

Measured: log2 fold change

RUBCN (UniProt Q92622)
inactive: [1] 0.018 | [2] -0.001 | [3] 0.009 | [4] 0.029 | [5] 0.036

RRP1B (UniProt Q14684)
inactive: [1] -0.022 | [2] -0.012 | [3] 0.067 | [4] -0.043 | [5] -0.003

RPS6 (UniProt P62753)
inactive: [1] -0.021 | [2] 0.043 | [3] 0.026 | [4] 0.034 | [5] 0.001

RRP7A (UniProt Q9Y3A4)
inactive: [1] 0.067 | [2] -0.189 | [3] -0.059 | [4] -0.034 | [5] 0.008

RUFY1 (UniProt Q96T51)
inactive: [1] 0.04 | [2] -0.054 | [3] 0.011 | [4] -0.001 | [5] 0.008

RPL8 (UniProt P62917)
inactive: [1] -0.041 | [2] 0.12 | [3] 0 | [4] 0.089 | [5] -0.006

RRAS2 (UniProt P62070)
inactive: [1] 0 | [2] 0.029 | [3] -0.005 | [4] -0.011 | [5] -0.008

RRP9 (UniProt O43818)
inactive: [1] 0.055 | [2] 0.144 | [3] 0.065 | [4] 0.002 | [5] 0.12

RPL7L1 (UniProt Q6DKI1)
inactive: [1] 0.003 | [2] 0.014 | [3] -0.059 | [4] -0.01 | [5] 0.011

RPL37 (UniProt P61927)
inactive: [1] 0.059 | [2] 0.065 | [3] -0.001 | [4] 0.051 | [5] 0.012

RPSA (UniProt P08865)
inactive: [1] 0.03 | [2] 0.009 | [3] 0.036 | [4] 0.04 | [5] -0.003

RWDD1 (UniProt Q9H446)
inactive: [1] -0.025 | [2] 0.107 | [3] -0.016 | [4] 0.043 | [5] -0.006

RUSC2 (UniProt Q8N2Y8)
inactive: [1] -0.14 | [2] -0.122 | [3] 0.107

S100A2 (UniProt P29034)
inactive: [1] 0.362 | [2] 0.167 | [3] -0.017 | [4] 0.124 | [5] -0.06

RPS27A (UniProt P62979)
inactive: [1] 0.054 | [2] -0.188 | [3] 0.009 | [4] 0.025 | [5] 0

RRAGB (UniProt Q5VZM2)
inactive: [1] 0.024 | [2] 0.104 | [3] -0.005 | [4] -0.009 | [5] 0.059

RUVBL2 (UniProt Q9Y230)
inactive: [1] 0.006 | [2] 0.119 | [3] 0.004 | [4] 0.012 | [5] 0.015

RRS1 (UniProt Q15050)
inactive: [1] 0.02 | [2] 0.054 | [3] 0.052 | [4] 0.009 | [5] -0.009

RPS28 (UniProt P62857)
inactive: [1] 0.01 | [2] 0.108 | [3] 0.018 | [4] -0.026 | [5] -0.051

RUNX1 isoform 8 (UniProt Q01196)
inactive: [1] 0.109 | [2] -0.17 | [3] -0.001 | [4] -0.031 | [5] -0.006

RTRAF (UniProt Q9Y224)
inactive: [1] -0.008 | [2] -0.059 | [3] -0.003 | [4] -0.039 | [5] 0.029

RPL6 (UniProt Q02878)
inactive: [1] -0.015 | [2] 0.098 | [3] -0.012 | [4] 0.01 | [5] 0.026

RPRD1B (UniProt Q9NQG5)
inactive: [1] -0.028 | [2] -0.011 | [3] 0.047 | [4] -0.04 | [5] 0.014

RPUSD4 (UniProt Q96CM3)
inactive: [1] -0.06 | [2] 0.046 | [3] -0.018 | [4] -0.022

RWDD4 (UniProt Q6NW29)
inactive: [1] -0.059 | [2] 0.076 | [3] 0.032 | [4] 0.057 | [5] 0.014

RWDD2B (UniProt P57060)
inactive: [1] 0.093 | [2] 0.011 | [3] -0.037 | [4] -0.06 | [5] 0.06

RWDD2A (UniProt Q9UIY3)
inactive: [1] -0.114 | [2] 0.113 | [3] -0.044 | [4] 0.016 | [5] 0.017

RPS26 (UniProt P62854)
inactive: [1] 0.014 | [2] 0.043 | [3] -0.06 | [4] -0.019 | [5] 0.009

RPLP0 (UniProt P05388)
inactive: [1] 0.013 | [2] 0.131 | [3] -0.01 | [4] 0.02 | [5] 0.044

RPL39P5 (UniProt Q59GN2)
inactive: [1] 0.003 | [2] 0.181 | [3] -0.019 | [4] -0.006 | [5] -0.013

RPS19 (UniProt P39019)
inactive: [1] 0.013 | [2] 0.092 | [3] 0.021 | [4] -0.006 | [5] 0.025

S100A12 (UniProt P80511)
inactive: [1] -0.295

S100A13 (UniProt Q99584)
inactive: [1] 0.012 | [2] 0.133 | [3] -0.029 | [4] -0.027 | [5] 0.008

RPUSD2 (UniProt Q8IZ73)
inactive: [1] 0.043 | [2] 0.09 | [3] -0.027 | [4] 0.005 | [5] -0.002

RTN4 isoform 5 (UniProt Q9NQC3)
inactive: [1] 0.133 | [2] 0.113 | [3] 0.023 | [4] 0.038 | [5] -0.005

RPL7A (UniProt P62424)
inactive: [1] 0.018 | [2] 0.084 | [3] 0.002 | [4] 0.049 | [5] -0.003

RPS9 (UniProt P46781)
inactive: [1] -0.03 | [2] 0.125 | [3] 0.042 | [4] 0.002 | [5] 0.004

RPP40 (UniProt O75818)
inactive: [1] -0.037 | [2] 0 | [3] -0.006 | [4] -0.013 | [5] -0.028

RTF1 (UniProt Q92541)
inactive: [1] -0.008 | [2] -0.044 | [3] 0.005 | [4] -0.054 | [5] -0.015

RRBP1 isoform 3 (UniProt Q9P2E9)
inactive: [1] -0.002 | [2] 0.118 | [3] -0.109 | [4] -0.11 | [5] 0.123

RPS19 (UniProt M0R2L9)
inactive: [1] -0.167 | [2] -0.015 | [3] 0.244 | [4] 0.33 | [5] -0.124

RPS7 (UniProt P62081)
inactive: [1] 0.004 | [2] 0.121 | [3] 0.022 | [4] 0.072 | [5] 0.008

RPS27L (UniProt Q71UM5)
inactive: [1] -0.002 | [2] 0.085 | [3] -0.012 | [4] 0.019 | [5] 0.026

RPP14 (UniProt O95059)
inactive: [1] 0.043 | [2] 0.047 | [3] -0.037 | [4] -0.058 | [5] 0.039

RPS26P11 (UniProt Q5JNZ5)
inactive: [1] -0.026 | [2] 0.114 | [3] 0.049 | [4] -0.113 | [5] -0.035

RPS6KA1 (UniProt Q15418)
active: [3] 0.553
inactive: [1] 0.014 | [2] -0.157 | [4] 0.123 | [5] -0.038

RPS15 (UniProt P62841)
inactive: [1] 0.036 | [2] 0.156 | [3] -0.009 | [4] -0.011 | [5] 0.051

RPS4X (UniProt P62701)
inactive: [1] 0.008 | [2] 0.106 | [3] 0.028 | [4] 0.015 | [5] 0.016

RRAGC (UniProt Q9HB90)
inactive: [1] 0.027 | [2] 0.088 | [3] 0.012 | [4] -0.015 | [5] 0.019

RPS21 (UniProt P63220)
inactive: [1] -0.041 | [2] 0.036 | [3] 0.002 | [4] -0.051 | [5] -0.027

RPS5 (UniProt P46782)
inactive: [1] 0 | [2] -0.009 | [3] 0.019 | [4] 0.051 | [5] 0.045

RPRD1A (UniProt Q96P16)
inactive: [1] 0.038 | [2] -0.274 | [3] 0.065 | [4] -0.007 | [5] -0.002

RPS6KC1 (UniProt Q96S38)
inactive: [1] 0.008 | [2] -0.132 | [3] 0.074 | [4] -0.049 | [5] -0.014

RTN3 (UniProt O95197)
inactive: [1] 0.036 | [2] 0.128 | [3] 0.011 | [4] 0.051 | [5] 0.013

RPL38 (UniProt P63173)
inactive: [1] 0.026 | [2] 0.048 | [3] 0.027 | [4] -0.013 | [5] 0.013

— the supplement of paper PMC10849652
